Measurements published in paper PMC6907878.
No constants are given. Whether binding was seen depends on the method and setting. Binding calls can cover weak binding; strength is not graded here. For some assays here: In cells and extracts the contact can be indirect.

Amino acid sequences for entries named in this document (tags omitted). A change or cut given only in a name is not applied to a line headed by its entry. Residues count along the entry.
UniProt P00282, residues 21-148: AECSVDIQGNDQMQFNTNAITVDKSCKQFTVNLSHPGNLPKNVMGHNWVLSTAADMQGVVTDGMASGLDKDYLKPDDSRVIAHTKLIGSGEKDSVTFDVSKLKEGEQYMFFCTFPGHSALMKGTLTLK
UniProt G3XD89: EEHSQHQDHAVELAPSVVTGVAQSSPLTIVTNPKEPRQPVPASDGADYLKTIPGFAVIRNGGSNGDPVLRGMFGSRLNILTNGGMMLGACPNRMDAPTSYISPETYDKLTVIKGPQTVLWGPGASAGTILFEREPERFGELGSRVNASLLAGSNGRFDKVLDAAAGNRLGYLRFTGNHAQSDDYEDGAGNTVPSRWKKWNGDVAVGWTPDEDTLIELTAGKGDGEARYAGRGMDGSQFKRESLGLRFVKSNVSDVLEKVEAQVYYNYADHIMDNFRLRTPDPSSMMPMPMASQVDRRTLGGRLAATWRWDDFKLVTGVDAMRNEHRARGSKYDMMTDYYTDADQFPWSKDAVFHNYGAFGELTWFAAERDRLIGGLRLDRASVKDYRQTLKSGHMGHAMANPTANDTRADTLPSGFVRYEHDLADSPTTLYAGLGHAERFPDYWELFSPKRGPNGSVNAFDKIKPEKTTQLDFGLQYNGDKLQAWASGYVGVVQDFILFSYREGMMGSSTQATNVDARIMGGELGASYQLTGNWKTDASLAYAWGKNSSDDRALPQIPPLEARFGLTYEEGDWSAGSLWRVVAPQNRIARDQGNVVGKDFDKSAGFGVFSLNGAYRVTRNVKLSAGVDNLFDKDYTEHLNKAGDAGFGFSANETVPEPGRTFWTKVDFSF

How the values were obtained:
[1] = biological target: GST-Azu (glutathione S-transferase-tagged azurin) (Pseudomonas aeruginosa PAO1) (UniProt P00282); test: pull-down; 100 ug purified GST or GST-Azu on glutathione beads, 20 ug His6-OprC added, 4 h at 4 C; washed with GST binding buffer containing 500 mM NaCl; immunoblot; both purified
[2] = biological target: Azu-Flag (Pseudomonas aeruginosa PAO1) (UniProt P00282); test: co-IP; OprC-His6 and Azu-Flag co-expressed in PAO1; lysate (20 mM Tris, 150 mM NaCl, 0.1% Triton X-100, pH 8.0) incubated with anti-Flag M2 magnetic beads 4 h at 4 C; washed with 500 mM NaCl; blots against Flag or His antibody

Substance | binding [1] | binding [2]
His6-OprC (recombinant, refolded) (from UniProt G3XD89) | binds | 
OprC-His6 (expressed in P. aeruginosa from pMMB67H-oprC-His6) (from UniProt G3XD89) |  | binds
